These results are taken from patent publication US8530648B2, “Diaza-spiro[5.5]undecanes” (Novartis AG, priority 2009, dated 2013).

The chains behind the UniProt entries cited, without tags or fusion partners.
UniProt O43613, whole entry: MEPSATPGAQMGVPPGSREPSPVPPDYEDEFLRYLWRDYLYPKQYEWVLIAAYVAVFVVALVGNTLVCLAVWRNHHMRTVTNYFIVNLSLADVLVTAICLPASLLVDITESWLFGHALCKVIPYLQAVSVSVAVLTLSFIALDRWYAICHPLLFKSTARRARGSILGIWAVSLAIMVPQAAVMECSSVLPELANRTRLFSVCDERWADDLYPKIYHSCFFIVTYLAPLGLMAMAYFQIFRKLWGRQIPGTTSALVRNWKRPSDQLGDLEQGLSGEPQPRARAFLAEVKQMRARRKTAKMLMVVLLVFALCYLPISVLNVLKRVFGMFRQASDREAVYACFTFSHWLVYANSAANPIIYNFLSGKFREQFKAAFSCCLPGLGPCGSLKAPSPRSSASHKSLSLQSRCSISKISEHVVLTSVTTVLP
UniProt O43614, whole entry: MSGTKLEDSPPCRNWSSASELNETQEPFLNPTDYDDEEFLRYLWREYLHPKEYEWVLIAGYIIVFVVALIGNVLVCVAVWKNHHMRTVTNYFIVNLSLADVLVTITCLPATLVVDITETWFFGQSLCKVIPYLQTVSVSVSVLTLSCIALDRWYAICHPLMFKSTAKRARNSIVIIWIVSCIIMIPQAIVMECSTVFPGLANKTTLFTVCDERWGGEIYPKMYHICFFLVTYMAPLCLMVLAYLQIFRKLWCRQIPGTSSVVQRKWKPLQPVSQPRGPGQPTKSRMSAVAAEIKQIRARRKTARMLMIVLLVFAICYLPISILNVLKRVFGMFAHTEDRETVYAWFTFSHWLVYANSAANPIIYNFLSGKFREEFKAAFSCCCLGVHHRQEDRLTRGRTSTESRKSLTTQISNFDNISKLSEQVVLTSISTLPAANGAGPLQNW

For assay [1], the target named is hOx1R (Homo sapiens (Human), UniProt O43613). Description: Calcium accumulation in cells (FLIPR), hOx1R. It is filed as cell-based. The settings on record: inhibition of orexin A induced calcium accumulation, Cheng and Prusoff correction. The method, then:
(§1) Calcium Accumulation in Cells (FLIPR):
(§2) Cells expressing human orexin 1 or human orexin 2 receptors, were seeded at 8,000 cells/well in 384 well black-walled clear bottom, poly-D-lysine coated plates. After 24 h, the medium was removed and cells were washed once with phosphate buffered saline and serum-deprived overnight in assay buffer (130 mM NaCl, 5.4 mM KCl, 1.8 mM CaCl2, 0.8 mM MgSO4, 0.9 mM NaH2PO4, 25 mM glucose, 20 mM HEPES, pH 7.4) containing bovine serum albumin (1% w/v).
(§3) On the day of the experiment, the cells seeded in black plates were treated with assay buffer containing the Ca^2+ sensitive fluorescent dye Fluo-4-AM (2 μM), and probenecid (0.1 mM). After 1 h plates were washed twice with, and resuspended in, assay buffer containing probenecid (0.1 mM) using a multi plate washer. […] Fluorescence measurements were then continued every 1 S for 120 S followed by every 4 S for 240 S.
(§4) The measurements were typically made in two sequences:
(§5) Compounds of formula I were tested usually in a concentration range from 10^−9 M to 10^−5 M.
(§6) In the second round, performed one hour later (to allow for equilibration), Orexin A was tested either in the absence (calibration curves, Orexin A agonist controls) or in the presence of compounds of formula I to determine antagonism.

Assay [2] deals with hOx2R (Homo sapiens (Human), UniProt O43614). The experiment in a line: Calcium accumulation in cells (FLIPR), hOx2R. It is filed as cell-based. Particulars: inhibition of orexin A induced calcium accumulation, Cheng and Prusoff correction. The method, then: as §1, §2, §3, §4, §5, §6

Broadly, the Ki is a dissociation constant, usually derived from enzyme kinetics or from competition with a known ligand. On to `O=C1N(Cc2c[nH]c3ccccc23)CCCC12CCN(c1ccc3nccn3n1)CC2` [Example 168, 2-((1H-indol-3-yl)methyl)-9-(imidazo[1,2-b]pyridazin-6-yl)-2,9-diazaspiro[5.5]undecan-1-one], for which the Ki in assay [1] turned out to be 2380 nM; in assay [2] it was 184 nM.
